Source: US11590129B2, “Combination therapy with an antitumor alkaloid” (PHARMA MAR, S.A., priority 2010, dated 2023)

Tests used:
[1] = test system: HGC-27 human gastric carcinoma cell line; experiment: cells; conditions: HGC-27, 72 h
Method: (§1) a. […] Briefly, cells were harvested and seeded in 96 well microtiter plates at a density of 5,000 cells in 150 μL of culture medium and incubated for 24 hours in drug-free medium before treatment with vehicle alone or test compounds for 72 h.
(§2) The cytotoxic effect was measured by the MTT reduction assay, in which 3-(4,5-Dimethylthiazol-2-yl)-2,5-diphenyltetrazolium bromide, a tetrazole, which is reduced to purple formazan in the mitochondria of living cells, was used. MTT (50 μL of 1 mg/mL stock solution) was added to the wells and incubated for 8 hours at 37° C. until formazan crystals were formed. After gently removing the culture medium, DMSO was added to dissolve the insoluble purple formazan product into a colored solution. […] Results were expressed as percentage of control cell growth.
(§3) b. In a second set of assays, A549 human tumor cells were incubated with PM01183 in combination with each of the agents mentioned above.
(§4) As a visual aid, response values were plotted on a scatter plot with dose ratios given on the x-axis and % response values on the y-axis. […] In cases where response values at the two endpoints were approximately equivalent, points lying above or below this predicted line of additivity could be interpreted as representing antagonistic or synergistic drug interaction, respectively. […]

[2] = test system: MDA-MB-231 human breast adenocarcinoma cell line; experiment: cells; conditions: MDA-MB-231, 72 h
Method: as §1, §2, §3, §4

[3] = test system: RXF-393 human kidney carcinoma cell line; experiment: cells; conditions: RXF 393, 72 h
Method: as §1, §2, §3, §4

[4] = test system: PANC-1 human pancreatic carcinoma cell line; experiment: cells; conditions: PANC-1, 72 h
Method: as §1, §2, §3, §4

[5] = test system: U87-MG human glioblastoma cell line; experiment: cells; conditions: U-87 MG, 72 h
Method: as §1, §2, §3, §4

[6] = test system: A549 human lung carcinoma cell line; experiment: MTT cytotoxicity assay in A549 cells: IC50 of single agents and combinations with PM01183; type: cell-based; conditions: A549, 72 hours drug exposure
Method: Additional serial dilutions were prepared in serum-free culture medium to achieve a final 4× concentration. Aliquots of 50 μL of each diluted compound were added per well.
A549 was the human lung carcinoma cell line selected for this assay.
as §1, §2, §3
As a visual aid, response values were plotted on a scatter plot with dose ratios given on the x-axis and % response values on the y-axis. […]

[7] = test system: PC-3 human prostate cancer cell line; experiment: cells; conditions: PC-3, 72 h
Method: as §1, §2, §3, §4

[8] = test system: HT-29 human colon adenocarcinoma cell line; experiment: cells; conditions: HT-29, 72 h
Method: as §1, §2, §3, §4

IC50 [1]: 1.2 µM
IC50 [2]: 1.7 µM
IC50 [3]: 4.1 µM
IC50 [4]: 6.05 µM
IC50 [5]: 16 µM
IC50 [7]: 3.9 µM
IC50 [8]: 2.76 µM
SMILES: O=C(CCCCCCC(=O)Nc1ccccc1)NO [Vorinostat, vorinostat]
IC50 [6]: 6.81 µM
